At least one compound was matched to its structure with a doubt left.
Tests used:
Format in all cases: cell-based
Details in all cases: reference antibiotics
[1] = system: Escherichia coli ATCC 25922; test: MIC assay, modified agar dilution (CLSI), E. coli ATCC 25922
Procedure: (§1) The potency of antibacterial agents was measured using the Minimal Inhibitory Concentration (MIC) assay. The assay measures the ability of test agents to inhibit the growth of bacteria on agar-containing medium.
(§2) The bacterial test strains used were exemplified by Staphylococcus aureus Smith, Enterococcus faecium A2373, Streptococcus pneumoniae IID554, and Escherichia coli ATCC 25922. All strains were maintained as frozen stocks held at −80° C. in skim milk. Other bacterial test strains are well known to those skilled in the art and can be used for testing.
(§3) Mueller Hinton Agar (MHA BBL; Becton Dickinson and Company, Sparks, Md.) was used as the medium. MHA was supplemented with 5% defibrinated horse blood (DHB; Nippon Biotest Laboratories inc.) to support the growth of S. pneumoniae and E. faecium.
(§4) MIC values were determined using a modified agar dilution procedure described by the Clinical and Laboratory Standards Institute (CLSI; Methods for Dilution Antimicrobial Susceptibility Tests for Bacteria That Grow Aerobically; Approved Standard—Eighth Edition. CLSI document M07-A8 [ISBN 1-56238-689-1]. Clinical and Laboratory Standards Institute, 940 West Valley Road, Suite 1400, Wayne, Pa. 19087-1898 USA, 2009).
(§5) Stock solutions (6.4 mgmL) of test compounds were prepared in 100% ultrapure dimethyl sulfoxide (DMSO; source) on the day of the assay. […]

[2] = system: Pseudomonas aeruginosa PAO1; test: MIC assay, modified agar dilution (CLSI), P. aeruginosa PAO1
Procedure: as §1, §3, §4
Stock solutions (6.4 mgmL) of test compounds were prepared in 100% ultrapure dimethyl sulfoxide (DMSO; source) on the day of the assay. Subsequent serial dilutions were performed to generate solutions with concentrations ranging from 6.4 to 0.0002 mgmL in 100% DMSO.
Agar medium containing test compound was prepared by adding the dilutions of antimicrobial solution to molten MHA at a temperature of 45-50° C. […]

[3] = system: Staphylococcus aureus Smith; test: MIC assay, modified agar dilution (CLSI), S. aureus Smith
Procedure: as §1, §2, §3, §4, §5

[4] = system: Streptococcus pneumoniae IID554; test: MIC assay, modified agar dilution (CLSI), S. pneumoniae IID554
Procedure: as §1, §2, §3, §4, §5

C[C@H]1COc2c(N3CCN(C)CC3)c(F)cc3c(=O)c(C(=O)O)cn1c23 [levofloxacin, reference compound]
susceptible: susceptibility of E. coli ATCC 25922 [1] | susceptibility of Pseudomonas aeruginosa PAO1 [2] | susceptibility of S. aureus Smith based on MIC interpretive standards defined by CLSI [3] | susceptibility of S. pneumoniae IID554 based on MIC interpretive standards defined by CLSI [4]

C[C@@H](O)[C@H]1C(=O)N2C(C(=O)O)=C(SCCN=CN)C[C@H]12 [imipenem, reference compound]
susceptible: susceptibility of E. coli ATCC 25922 [1] | susceptibility of Pseudomonas aeruginosa PAO1 [2]

From patent US20140243302A1, “BRIDGED BICYCLIC COMPOUNDS FOR THE TREATMENT OF BACTERIAL INFECTIONS” (priority 2011, published 2014)
